# Assay results: paper PMC4376871
# Results are given in words; binding and its absence hold for the method and conditions named. For part of these data: Binding can be weak; no strength is given. Tags and fused reporters may be left off the sequences shown.
# Tests used:
# Experiment in all cases: two-hybrid; Matchmaker Two-Hybrid System 3, yeast AH109; C4 on the GAL4 activation domain, AtSKs and Lamin C on the GAL4 DNA binding domain; growth curves (OD600) in quadruple dropout medium at 30°C, high stringency
# [1] = molecular target: T1, Arabidopsis SHAGGY-like protein kinase AtSK41 fused to the GAL4 DNA binding domain (Arabidopsis thaliana (ecotype Sei-0 cDNA)) (UniProt Q39019)
# T1 sequence: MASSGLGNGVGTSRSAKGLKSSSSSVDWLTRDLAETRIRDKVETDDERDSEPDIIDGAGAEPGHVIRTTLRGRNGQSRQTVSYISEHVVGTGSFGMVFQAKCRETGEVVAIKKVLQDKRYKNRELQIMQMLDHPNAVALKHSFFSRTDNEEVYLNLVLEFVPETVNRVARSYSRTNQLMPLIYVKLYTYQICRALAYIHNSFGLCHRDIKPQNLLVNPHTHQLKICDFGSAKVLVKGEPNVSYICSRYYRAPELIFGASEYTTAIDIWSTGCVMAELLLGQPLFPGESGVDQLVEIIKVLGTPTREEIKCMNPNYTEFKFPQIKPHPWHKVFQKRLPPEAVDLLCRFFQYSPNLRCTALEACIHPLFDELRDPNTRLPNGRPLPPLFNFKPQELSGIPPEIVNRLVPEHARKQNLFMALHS
# [2] = molecular target: T2, Arabidopsis SHAGGY-like protein kinase AtSK42 fused to the GAL4 DNA binding domain (Arabidopsis thaliana (ecotype Sei-0 cDNA)) (UniProt Q9FVS6)
# T2 sequence: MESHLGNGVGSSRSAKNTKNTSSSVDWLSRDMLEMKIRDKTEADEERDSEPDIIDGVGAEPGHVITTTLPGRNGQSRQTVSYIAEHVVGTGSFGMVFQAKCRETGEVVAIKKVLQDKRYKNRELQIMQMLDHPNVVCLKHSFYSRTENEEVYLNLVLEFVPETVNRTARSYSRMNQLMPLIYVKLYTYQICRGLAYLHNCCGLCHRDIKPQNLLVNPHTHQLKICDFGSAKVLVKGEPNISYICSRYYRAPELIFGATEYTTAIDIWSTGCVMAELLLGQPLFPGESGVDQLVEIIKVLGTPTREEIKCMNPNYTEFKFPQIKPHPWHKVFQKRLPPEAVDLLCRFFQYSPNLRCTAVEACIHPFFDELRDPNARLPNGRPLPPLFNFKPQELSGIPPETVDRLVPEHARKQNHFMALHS
# [3] = molecular target: T3, Arabidopsis SHAGGY-like protein kinase AtSK22 fused to the GAL4 DNA binding domain (Arabidopsis thaliana (ecotype Sei-0 cDNA)) (UniProt Q39012)
# T3 sequence: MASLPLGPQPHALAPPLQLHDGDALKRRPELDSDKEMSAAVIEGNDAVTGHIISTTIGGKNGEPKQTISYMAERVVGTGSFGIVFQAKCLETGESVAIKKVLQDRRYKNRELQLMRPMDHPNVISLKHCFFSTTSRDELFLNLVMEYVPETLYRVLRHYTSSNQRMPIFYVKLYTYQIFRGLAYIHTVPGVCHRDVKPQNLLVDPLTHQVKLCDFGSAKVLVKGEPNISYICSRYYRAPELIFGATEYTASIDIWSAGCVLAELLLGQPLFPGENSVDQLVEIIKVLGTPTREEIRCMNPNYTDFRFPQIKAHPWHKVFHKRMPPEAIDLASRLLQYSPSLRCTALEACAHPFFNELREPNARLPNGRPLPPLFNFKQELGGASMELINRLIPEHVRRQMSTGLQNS
substance,measurement,setting,value
Beet curly top virus (BCTV-B[US:Logan:76]) C4 protein fused to the GAL4 activation domain,binding,[1],no binding
same,binding,[2],no binding
same,binding,[3],binds
